From article PMC4454308
No constants are given. Whether binding was seen depends on the method and setting. Binding seen in cells or lysates may run through a third protein. Some results given as binding are weak or reduced against the parent protein; the word gives no strength. For some of these results: Where a sequence is shown, tags or fusion partners need not be part of it.

By UniProt entry, the sequences of proteins in these tests, tags left out.
UniProt O60260: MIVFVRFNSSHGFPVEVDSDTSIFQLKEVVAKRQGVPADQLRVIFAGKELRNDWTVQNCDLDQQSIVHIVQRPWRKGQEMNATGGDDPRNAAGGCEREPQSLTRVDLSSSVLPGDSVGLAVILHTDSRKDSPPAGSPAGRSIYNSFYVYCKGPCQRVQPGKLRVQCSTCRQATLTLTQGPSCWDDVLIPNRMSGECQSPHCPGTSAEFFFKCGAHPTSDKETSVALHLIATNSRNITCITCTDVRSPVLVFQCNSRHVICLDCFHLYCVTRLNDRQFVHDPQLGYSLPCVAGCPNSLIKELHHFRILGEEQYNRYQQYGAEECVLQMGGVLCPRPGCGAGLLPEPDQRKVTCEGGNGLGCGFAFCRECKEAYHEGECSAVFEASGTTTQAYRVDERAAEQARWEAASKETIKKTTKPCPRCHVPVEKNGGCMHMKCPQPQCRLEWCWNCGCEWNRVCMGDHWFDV
UniProt Q9JK66: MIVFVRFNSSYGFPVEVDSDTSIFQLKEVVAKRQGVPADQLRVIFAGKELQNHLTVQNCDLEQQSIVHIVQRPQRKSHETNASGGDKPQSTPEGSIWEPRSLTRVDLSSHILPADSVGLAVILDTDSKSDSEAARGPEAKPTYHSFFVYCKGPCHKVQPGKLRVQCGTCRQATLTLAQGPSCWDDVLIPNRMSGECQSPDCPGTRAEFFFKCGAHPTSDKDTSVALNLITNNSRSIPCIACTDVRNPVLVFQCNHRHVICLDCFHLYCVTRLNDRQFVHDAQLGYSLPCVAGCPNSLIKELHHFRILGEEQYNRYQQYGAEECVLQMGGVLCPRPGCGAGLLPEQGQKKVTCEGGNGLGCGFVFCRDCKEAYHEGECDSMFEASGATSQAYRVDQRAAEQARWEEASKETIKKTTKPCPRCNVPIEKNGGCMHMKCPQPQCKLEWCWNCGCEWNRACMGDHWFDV

Columns and labels:
[1] = target: T1, RTP801 (ectopic, from pCMS-eGFP RTP801) (UniProt Q8VHZ9); test: co-IP; HEK293 co-transfected with pCMS-eGFP RTP801 and pEGFP-C2-parkin; 24 h later DSP cross-linking for 2 h at 4°C before harvest; IP with anti-RTP801 (normal IgG as control), blot for parkin; beads washed five times with CHAPS buffer (Tris 50 mM pH 7.4, NaCl 150 mM, MgCl2 10 mM, CHAPS 0.4%)
T1 sequence: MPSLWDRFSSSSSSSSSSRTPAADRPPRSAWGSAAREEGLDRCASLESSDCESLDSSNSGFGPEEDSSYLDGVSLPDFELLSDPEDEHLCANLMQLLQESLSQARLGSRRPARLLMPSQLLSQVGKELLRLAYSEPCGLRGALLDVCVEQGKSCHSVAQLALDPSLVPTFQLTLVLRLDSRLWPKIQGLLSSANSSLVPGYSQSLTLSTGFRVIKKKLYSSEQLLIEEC

[2] = target: T2, endogenous RTP801 (neuronal PC12 cells) (rat (endogenous in PC12)) (UniProt Q8VHZ9); test: co-IP; endogenous proteins in neuronal PC12 cell lysates, cells treated with or without MG132 for 5 h; IP with anti-parkin (protein A) or anti-RTP801 (protein G), anti-GFP as control antibody; overnight at 4°C; beads washed four times with cell lysis buffer; blots for parkin and RTP801
T2 sequence: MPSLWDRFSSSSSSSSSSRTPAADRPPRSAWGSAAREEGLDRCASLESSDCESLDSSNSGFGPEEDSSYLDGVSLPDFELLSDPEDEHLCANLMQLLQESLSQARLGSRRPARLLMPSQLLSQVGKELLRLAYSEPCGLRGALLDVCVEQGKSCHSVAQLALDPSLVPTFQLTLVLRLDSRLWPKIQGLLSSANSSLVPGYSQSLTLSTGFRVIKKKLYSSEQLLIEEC

[3] = target: GFP-tagged parkin (ectopic, from pEGFP-C2-parkin) (UniProt O60260); test: co-IP; converse direction: ectopic parkin immunoprecipitated, blot probed for RTP801 (Supplementary Figure S3); cells, antibody and use of DSP not told in the text shown
[4] = target: endogenous parkin (neuronal PC12 cells) (rat (endogenous in PC12)) (UniProt Q9JK66); test: co-IP; endogenous proteins in neuronal PC12 cell lysates, cells treated with or without MG132 for 5 h; IP with anti-parkin (protein A) or anti-RTP801 (protein G), anti-GFP as control antibody; overnight at 4°C; beads washed four times with cell lysis buffer; blots for parkin and RTP801

“GFP-tagged parkin (ectopic, from pEGFP-C2-parkin) (from UniProt O60260 1-465) (enzyme)” was tested, and the binding [1] was “binds”.

“endogenous parkin (neuronal PC12 cells) (from UniProt Q9JK66 1-465) (enzyme)” was tested, and the binding [2] was “binds”.

B1: RTP801 (ectopic, from pCMS-eGFP RTP801) (protein, UniProt Q8VHZ9 1-229)
chain: MPSLWDRFSSSSSSSSSSRTPAADRPPRSAWGSAAREEGLDRCASLESSDCESLDSSNSGFGPEEDSSYLDGVSLPDFELLSDPEDEHLCANLMQLLQESLSQARLGSRRPARLLMPSQLLSQVGKELLRLAYSEPCGLRGALLDVCVEQGKSCHSVAQLALDPSLVPTFQLTLVLRLDSRLWPKIQGLLSSANSSLVPGYSQSLTLSTGFRVIKKKLYSSEQLLIEEC
In the case of B1, the binding [3] is reported as “binds”.

B2: endogenous RTP801 (neuronal PC12 cells) (protein, UniProt Q8VHZ9 1-229)
chain: MPSLWDRFSSSSSSSSSSRTPAADRPPRSAWGSAAREEGLDRCASLESSDCESLDSSNSGFGPEEDSSYLDGVSLPDFELLSDPEDEHLCANLMQLLQESLSQARLGSRRPARLLMPSQLLSQVGKELLRLAYSEPCGLRGALLDVCVEQGKSCHSVAQLALDPSLVPTFQLTLVLRLDSRLWPKIQGLLSSANSSLVPGYSQSLTLSTGFRVIKKKLYSSEQLLIEEC
With B2 the binding [4] was “binds”.
